# Experimental data taken from US20040005688A1.
# B1: Dishevelled Associated Kinase (DAK), endogenous kinase activity from Drosophila embryo and Clone-8 cell lysates (enzyme)
# chain: MSTAMRTTLQSVPEALPADSVSNGTASNVAAPAAPVSSATNAVPPLAAVSSTTATYATNSISTSSHSVKDQQQQQQQQQHDSANANIVSLPPTTTPVANTNTMMPIVTSSNSATSNSTAATPTPASGAAATGGVGSVSQGPATVSASAANTNHSHQHSHQHHHHVANNMTTDGARLSSNNSAVVASSAINHHHHHTPGSGVAPTVNKNVLSTHSAHPSAIKQRTSSAKGSPNMQMRSSAPMRWRATEEHIGKYKLIKTIGKGNFAKVKLAKHLPTGKEVAIKIIDKTQLNPGSLQKLFREVRIMKMLDHPNIVKLFQVIETEKTLYLIMEYASGGEVFDYLVLHGRMKEKEARVKFRQIVSAVQYCHQKRIIHRDLKAENLLLDSELNIKIADFGFSNEFTPGSKLDTFCGSPPYAAPELFQGKKYDGPEVDVWSLGVILYTLVSGSLPFDGSTLRELRERVLRGKYRIPFYMSTDCENLLRKFLVLNPAKRASLETIMGDKWMNMGFEEDELKPYIEPKADLADPKRIEALVAMGYNRSEIEASLSQVRYDDVFATYLLLGRKSTDPESDGSRSGSSLSLRNISGNDAGANAGSASVQSPTHRGVHRSISASSTKPSRRASSGAETLRVGPTNAAATVAAATGAVGAVNPSNNYNAAGSAADRASVGSNFKRQNTIDSATIKENTARLAAQNQRPASATQKMLTTADTTLNSPAKPRTATKYDPTNGNRTVSGTSGIIPRRSTTLYEKTSSTEKTNVIPAETKMASAVKSSRHFPRNVPSRSTFHSGQTRARNNTALEYSGTSGASGDSSHPGRMSFFSKLSSRFSKRPNQ
# Experiments:
# [1] = molecular target: GST-fusion protein containing the N-terminal region of Dsh (GST-DN) (Drosophila); test: GST pull-down from lysates, and re-binding of kinase eluted from Dsh immuno-complex; in vitro kinase assay
# [2] = molecular target: GST-fusion protein containing the C-terminal region of Dsh (Drosophila); test: as above
binder,measurement,setting,value
B1,binding,[1],no binding
same,binding,[2],no binding

# Results are given in words; binding and its absence hold for the method and conditions named. Binding seen in cells or lysates may run through a third protein.
